# From PubChem BioAssay (NCATS)
# The chains behind the UniProt entries cited, without tags or fusion partners. Where a name states a change or a piece, a line headed by the entry shows the natural chain unless it says otherwise.
# UniProt P03372, whole entry, looked up: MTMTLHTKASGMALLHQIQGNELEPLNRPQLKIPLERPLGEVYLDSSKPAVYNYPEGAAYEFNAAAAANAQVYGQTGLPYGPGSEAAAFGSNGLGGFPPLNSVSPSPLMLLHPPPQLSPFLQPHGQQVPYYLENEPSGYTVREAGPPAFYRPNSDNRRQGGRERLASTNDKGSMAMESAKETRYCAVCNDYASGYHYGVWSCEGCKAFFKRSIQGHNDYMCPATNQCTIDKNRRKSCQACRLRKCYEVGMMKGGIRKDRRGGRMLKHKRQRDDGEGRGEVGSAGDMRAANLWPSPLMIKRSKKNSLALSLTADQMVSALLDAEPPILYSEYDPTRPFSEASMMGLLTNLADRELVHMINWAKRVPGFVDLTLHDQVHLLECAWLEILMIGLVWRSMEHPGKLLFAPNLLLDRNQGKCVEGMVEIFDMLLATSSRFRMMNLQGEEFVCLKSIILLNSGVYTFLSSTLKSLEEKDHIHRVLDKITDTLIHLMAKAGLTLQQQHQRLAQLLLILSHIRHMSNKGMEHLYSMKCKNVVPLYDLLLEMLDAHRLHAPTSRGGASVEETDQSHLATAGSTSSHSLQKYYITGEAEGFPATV
# UniProt P19793: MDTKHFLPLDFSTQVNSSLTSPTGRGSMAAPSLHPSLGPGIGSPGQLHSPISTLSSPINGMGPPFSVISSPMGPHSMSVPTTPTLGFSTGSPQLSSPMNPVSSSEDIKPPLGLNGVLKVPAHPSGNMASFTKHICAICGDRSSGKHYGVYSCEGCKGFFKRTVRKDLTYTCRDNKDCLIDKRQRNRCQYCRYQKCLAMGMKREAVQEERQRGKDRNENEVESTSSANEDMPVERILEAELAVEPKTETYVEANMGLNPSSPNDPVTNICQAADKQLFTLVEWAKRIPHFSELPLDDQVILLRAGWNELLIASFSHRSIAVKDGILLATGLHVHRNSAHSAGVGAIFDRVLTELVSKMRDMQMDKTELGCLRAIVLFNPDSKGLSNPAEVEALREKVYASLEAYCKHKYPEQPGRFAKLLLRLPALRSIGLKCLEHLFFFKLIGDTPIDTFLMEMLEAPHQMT
# UniProt P10828: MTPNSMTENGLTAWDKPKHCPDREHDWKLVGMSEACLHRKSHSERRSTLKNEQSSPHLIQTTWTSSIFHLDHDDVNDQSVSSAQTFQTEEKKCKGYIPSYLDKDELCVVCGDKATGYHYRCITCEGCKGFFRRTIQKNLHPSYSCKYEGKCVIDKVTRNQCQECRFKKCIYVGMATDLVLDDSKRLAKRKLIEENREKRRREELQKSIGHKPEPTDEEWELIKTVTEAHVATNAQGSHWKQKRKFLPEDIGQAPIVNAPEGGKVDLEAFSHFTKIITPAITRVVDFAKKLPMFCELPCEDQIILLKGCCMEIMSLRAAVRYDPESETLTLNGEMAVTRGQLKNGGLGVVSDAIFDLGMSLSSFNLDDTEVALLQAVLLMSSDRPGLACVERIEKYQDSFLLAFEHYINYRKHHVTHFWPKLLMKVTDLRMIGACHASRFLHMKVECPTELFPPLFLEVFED
# UniProt Q03181: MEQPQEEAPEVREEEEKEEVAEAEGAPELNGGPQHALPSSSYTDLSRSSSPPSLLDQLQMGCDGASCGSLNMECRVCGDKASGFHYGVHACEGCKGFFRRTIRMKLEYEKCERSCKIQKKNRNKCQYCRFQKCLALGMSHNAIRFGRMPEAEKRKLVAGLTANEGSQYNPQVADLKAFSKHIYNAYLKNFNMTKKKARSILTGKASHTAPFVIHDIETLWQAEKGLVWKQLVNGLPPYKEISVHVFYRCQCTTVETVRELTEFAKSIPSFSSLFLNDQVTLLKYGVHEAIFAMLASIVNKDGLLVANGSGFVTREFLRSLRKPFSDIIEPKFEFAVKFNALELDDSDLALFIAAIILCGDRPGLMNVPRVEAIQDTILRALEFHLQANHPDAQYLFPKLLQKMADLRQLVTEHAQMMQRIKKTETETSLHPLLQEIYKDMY
# Inconclusive means that the source gave no clear call. Such entries were picked first, then a sample of the others. For part of these data: A potency beside an inconclusive call is a rough fit, not a confirmed value. For part of these data: A note “side channel” means that the fit belongs to a control or component signal, not to the main read-out. Calls of active or inactive are those of the source. Unless noted, calls come from the whole dose curve.
# Key:
# [1] = Cellular Toxicity (caspase-3) Renal Proximal Tubule (AID 667; active = well fitted curve in the direction sought with a large enough effect; inconclusive = small, poorly fitted or top-dose-only effect, or another doubt; inactive = no such curve, though single readings can be large; an effect the other way counts as inactive or inconclusive;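 note: cells exposed to compound for 16 hours at 37 °C before detection; 0% = DMSO basal and 100% = 10 µM staurosporine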); conditions: renal proximal tubule cells, primary cells freshly taken from rat, solvent-only wells 0%, staurosporine 100%; at 91.7 µM (top of the series)
# Summary of the method: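 Primary rat proximal tubule cells, 1000/well, 5 h plating at 37 °C, then compound 16 h at 37 °C. Caspase-Glo 3/7 reagent, 1 h RT, luminescence. Normalized to DMSO (basal) and 10 uM staurosporine (100%); Hill-fit AC50.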
# [2] = biological target: Estrogen receptor (Homo sapiens) (UniProt P03372); test: qHTS assay for small molecule agonists of estrogen receptor alpha signaling (AID 588514); conditions: ER-alpha-UAS-bla HEK293, beta-lactamase ratio, 18 h; activation: at 76.8 µM (top of the series), percent of full estradiol response, vehicle zero; note: nearly all actives have a fitted effect of over 70% in size; note: potency is the fitted concentration of half-maximal effect;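 for activation: 0% = vehicle only and 100% = reference agonist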
# Summary of the method: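 Fluorescence from CCF4 cleavage reports ER-alpha-driven beta-lactamase expression in HEK 293 cells treated 18 hrs at 37 C. Data normalized to 17-beta-estradiol (20 nM) and DMSO, fitted to Hill equation.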
# [3] = biological target: Peroxisome proliferator-activated receptor gamma (Homo sapiens) (UniProt P37231); test: qHTS assay for small molecule agonists of peroxisome proliferator-activated receptor gamma signaling (AID 588536; active = well fitted curve in the direction sought with a large enough effect in the signal ratio, with a control signal flat, not every such curve was filed as active; inconclusive = small, poorly fitted or top-dose-only effect, or effect the other way, or a change in a side signal; inactive = no such curve, though single readings can be large or run the other way; the % refers to the signal ratio;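 note: 0% = DMSO basal wells and 100% = rosiglitazone at 2 µM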); conditions: HEK293 PPARg-UAS-bla, beta-lactamase ratio, 16 h; activation: at 76.7 µM (top of the series), percent of rosiglitazone response, DMSO as zero unless noted
# Summary of the method: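 Compound treatment: 16 h, 37 C, HEK293 GeneBLAzer cells. Detection: CCF4, 2 h RT. Values: Hill-fit EC50, efficacy as % of 2 uM rosiglitazone.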
# [4] = biological target: Peroxisome proliferator-activated receptor gamma (Homo sapiens) (UniProt P37231); test: qHTS assay for small molecule antagonists of peroxisome proliferator-activated receptor gamma signaling (AID 588537; active = well fitted inhibition curve with a large enough effect in the signal ratio, with a control signal flat, not every such curve was filed as active; inconclusive = small, poorly fitted or top-dose-only effect, or effect the other way, or a change in a side signal; the % refers to the signal ratio; note: potency is the fitted concentration of half-maximal effect;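 for activity, negative = inhibition: reporter cells co-stimulated with 50 nM rosiglitazone agonist during compound treatment; % of control where 0% means no effect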); conditions: HEK293 PPARg-UAS-bla, beta-lactamase ratio, antagonist mode; activity, negative = inhibition: at 76.8 µM (top of the series)
# Summary of the method: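 Cell-based beta-lactamase assay; GW9662 served as the antagonist control. Stimulation used rosiglitazone, final 50 nM, 16 h, 37 C.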
# [5] = qHTS assay for small molecule agonists of the antioxidant response element (ARE) signaling pathway (AID 651741; active = well fitted activation curve with a large enough effect in the signal ratio; inconclusive = small, poorly fitted or top-dose-only effect, or effect the other way, or a change in a side signal; the % refers to the signal ratio; note: potency is the fitted concentration of half-maximal effect); conditions: HepG2 ARE-bla reporter, beta-lactamase FRET ratio, 16 h; activation: at 96 µM (top of the series) unless noted
# Summary of the method: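 Agonist activity is measured as ARE-driven beta-lactamase expression in a stable HepG2 reporter line, using 16 h compound treatment at 37 C and a FRET substrate fluorescence readout after 2 h.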
# [6] = qHTS assay to identify small molecules that stimulate interleukin-8 (IL-8) secretion (AID 651758; active = well fitted activation curve with a large enough effect in the signal ratio; inconclusive = small, poorly fitted or top-dose-only effect, or effect the other way, or a change in a side signal; the % refers to the signal ratio; note: 0% is about no effect); conditions: HTRF ratio (665/615); activation: at 92.2 µM (top of the series)
# Summary of the method: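 Secreted IL-8 measured homogeneously by TR-FRET (two labelled anti-IL-8 antibodies, 1-3 h at room temperature) after a 16 h, 37 C compound treatment of THP-1 cells at 2000 cells/well.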
# [7] = biological target: Glucocorticoid receptor (Homo sapiens) (UniProt P04150); test: qHTS assay for small molecule agonists of glucocorticoid receptor signaling (AID 588532; active = well fitted curve in the direction sought with a large enough effect in the signal ratio, with a control signal flat; inconclusive = small, poorly fitted or top-dose-only effect, or a change in a side signal; inactive = no such curve, though single readings can be large or run the other way; the % refers to the signal ratio; note: potency is the fitted concentration of half-maximal effect;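 for activation: 100% = dexamethasone at 0.1 µM and 0% = DMSO only wells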); conditions: HeLa MMTV-bla, beta-lactamase ratio, agonist, 18 h; activation: active compounds read high, percent of dexamethasone control, DMSO zero
# Summary of the method: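 Quantitative HTS using CellSensor MMTV-bla HeLa cells in charcoal/dextran-treated serum; compounds tested up to 92 uM. After 18 h at 37 C, CCF4 dye reported reporter induction.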
# [8] = biological target: Glucocorticoid receptor (Homo sapiens) (UniProt P04150); test: qHTS assay for small molecule antagonists of glucocorticoid receptor signaling (AID 588533; active = well fitted inhibition curve with a large enough effect in the signal ratio, with a control signal flat, not every such curve was filed as active; inconclusive = small, poorly fitted or top-dose-only effect, or effect the other way, or a change in a side signal; the % refers to the signal ratio;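 note: cells stimulated with 2 nM dexamethasone as agonist; % is set by controls: 0 for no effect and ±100 for the full control effect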); conditions: HeLa MMTV-bla, GRE beta-lactamase ratio, antagonist mode, 18 h; activity change, negative = inhibition: at 76.8 µM (top of the series) unless noted
# [9] = qHTS assay for cell viability of the p53RE-bla HCT-116 cell line (AID 743292; active = well fitted curve in the direction sought with a large enough effect; inconclusive = small, poorly fitted or top-dose-only effect, or another doubt; inactive = no such curve, though single readings can be large; an effect the other way counts as inactive or inconclusive; note: % is set by controls: 0 for no effect and ±100 for the full control effect; nearly all actives have a fitted effect of over 55% in size)
# Summary of the method: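 ATP-based luminescence, 16 h compound exposure at 37 C, p53RE-bla HCT-116 cells at 4,000/well.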
# [10] = biological target: Retinoic acid receptor RXR-alpha (Homo sapiens) (UniProt P19793); test: qHTS assay for small molecule agonists of retinoid X receptor alpha signaling (AID 588544); conditions: HEK293T RXRa-UAS-bla, beta-lactamase reporter, 18 h; activation: at 76.7 µM (top of the series) unless noted; note: potency is the fitted concentration of half-maximal effect;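 for activation: 0% = DMSO basal wells and 100% = reference agonist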
# [11] = qHTS assay for small molecule agonists of the antioxidant response element (ARE) signaling pathway measured by Nrf2-dependant transcriptional activity (AID 720636; active = well fitted curve in the direction sought with a large enough effect in the repeat runs; inconclusive = weak or mixed curves; inactive = no such curve, though single readings can be large; an effect the other way counts as inactive or inconclusive; note: potency is the fitted concentration of half-maximal effect;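 for activation: HepG2 cells with an ARE-driven luciferase reporter; % of control where 0% means no effect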)
# Summary of the method: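 Nrf2-dependent transcription is measured in ARE-luc HepG2 cells: compound is applied for 16 hr at 37 C after a 6 hr attachment period, and luciferase activity is quantified by luminescence using ONE-Glo.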
# [12] = biological target: Retinoic acid receptor RXR-alpha (Homo sapiens) (UniProt P19793); test: qHTS assay for small molecule antagonists of retinoid X receptor alpha signaling (AID 588546; active = well fitted inhibition curve with a large enough effect in the signal ratio, with a control signal flat, not every such curve was filed as active; inconclusive = small, poorly fitted or top-dose-only effect, or effect the other way, or a change in a side signal; inactive = no such curve, though single readings can be large or run the other way; the % refers to the signal ratio;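 note: cells stimulated with 9-cis-retinoic acid as agonist; % is set by controls: 0 for no effect and ±100 for the full control effect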); conditions: HEK293T RXRa-UAS-bla, beta-lactamase ratio, antagonist mode
# Summary of the method: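 Beta-lactamase reporter inhibition, read as CCF4 fluorescence ratio (ex 405, em 460/530 nm) after 2 h at RT. HEK293T UAS-bla cells, 2500/well, were stimulated with 9-cis-RA at 500 or 100 nM final alongside test compound for 18 h at 37 C.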
# [13] = Cellular Toxicity (caspase-3) NIH 3T3 (AID 666; active = well fitted curve in the direction sought with a large enough effect; inconclusive = small, poorly fitted or top-dose-only effect, or another doubt; inactive = no such curve, though single readings can be large; an effect the other way counts as inactive or inconclusive;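 note: caspase signal read after 16 h compound exposure; 0% = DMSO basal and 100% = 100 µM tamoxifen stimulation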)
# Summary of the method: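 Activity: caspase-3/7 induction, NIH 3T3 cells, 16 hr treatment at 37°C, luminescent Caspase-Glo detection; AC50 via Hill equation.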
# [14] = Cell Viability - LYMP2-020 (AID 986; active = well fitted curve in the direction sought with a large enough effect; inconclusive = small, poorly fitted or top-dose-only effect, or another doubt; inactive = no such curve, though single readings can be large; an effect the other way counts as inactive or inconclusive;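 note: cells exposed to compound for 24 h at 37 °C; plate controls were DMSO only for no effect and tetraoctylammonium bromide at 92 µM for full effect; nearly all actives have a fitted effect of over 55% in size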); conditions: activity change, negative = viability loss: at 92.2 µM (top of the series)
# Summary of the method: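 Cells at 2500 per well receive a 24 hr compound exposure at 37 C. Viability is measured as ATP-dependent luciferase luminescence, with AC50 modeled from qHTS concentration-response curves.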
# [15] = Cell Viability - LYMP2-024 (AID 988; active = well fitted curve in the direction sought with a large enough effect; inconclusive = small, poorly fitted or top-dose-only effect, or another doubt; inactive = no such curve, though single readings can be large; an effect the other way counts as inactive or inconclusive;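 note: plate controls were DMSO only for no effect and 92 µM tetraoctylammonium bromide for full effect; nearly all actives have a fitted effect of over 60% in size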)
# Summary of the method: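 Cells at 2500 per well received compound for 24 hr after a 5 hr settling period. Viability was scored by CellTiter-Glo luminescence, with AC50 from Hill fits.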
# [16] = biological target: Thyroid hormone receptor beta (Homo sapiens) (UniProt P10828); test: qHTS assay for small molecule antagonists of thyroid hormone receptor beta signaling (AID 588547; active = well fitted inhibition curve with a large enough effect in the signal ratio, with a control signal flat, not every such curve was filed as active; inconclusive = small, poorly fitted or top-dose-only effect, or effect the other way, or a change in a side signal; the % refers to the signal ratio;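 note: cells stimulated with 0.4 nM T3 agonist during compound exposure; % is set by controls: 0 for no effect and ±100 for the full control effect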); conditions: TR-UAS-bla HEK293, beta-lactamase ratio, antagonist mode, 18 h
# Summary of the method: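 Inhibition of T3-driven (0.4nM final) beta-lactamase reporter activity was measured over 0.59 nM to 92 uM compound after 18 h at 37 C. The cells were GripTite HEK293 TR-UAS-bla in charcoal/dextran-stripped serum, with CCF4 ratio read-out and IC50 from Hill fits.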
# [17] = biological target: Peroxisome proliferator-activated receptor delta (Homo sapiens) (UniProt Q03181); test: qHTS assay for small molecule antagonists of peroxisome proliferator-activated receptor delta signaling (AID 588535; active = well fitted inhibition curve with a large enough effect in the signal ratio, with a control signal flat, not every such curve was filed as active; inconclusive = small, poorly fitted or top-dose-only effect, or effect the other way, or a change in a side signal; inactive = no such curve, though single readings can be large or run the other way; the % refers to the signal ratio); conditions: HEK293T PPARd-UAS-bla, beta-lactamase FRET ratio, 18 h; activity change, negative = inhibition: at 76.7 µM (top of the series) unless noted
# Summary of the method: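 Antagonist-mode qHTS using GeneBLAzer PPAR-delta-UAS-bla HEK293T cells; compound exposure 18 hrs at 37 C over a titration. Ratiometric CCF4 fluorescence at 460/530 nm; concentration-response points fitted to the Hill equation.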
# [18] = biological target: Thyroid hormone receptor beta (Homo sapiens) (UniProt P10828); test: qHTS assay for small molecule agonists of thyroid hormone receptor beta signaling (AID 588545); conditions: TR-UAS-bla GripTite HEK 293, beta-lactamase ratio, agonist mode, 18 h; activation: at 76.7 µM, percent of T3 response, DMSO as zero
# Summary of the method: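 HEK 293 TR-UAS-bla; agonist mode; 18 hrs, 37 C; CCF4, ex 405/em 460 and 530 nm; norm. T3 10 nM = 100%, DMSO = 0%; Hill fit → EC50, efficacy.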
compound,measurement,setting,value
Oc1c(Cl)cccc1Cl,caspase-3 activation,[1],inactive: -1.85%
same,Potency,[2],inactive
same,Potency,[3],inactive
same,"activity, negative = inhibition",[4],inconclusive: 7.01%
same,Potency,[5],"inconclusive: 33.5 µM [fluorescent, side channel, partial curve, poor fit]"
same,Potency,[6],inactive
CCNC(=O)NC(=O)/C(C#N)=N/OC,Potency,[2],inactive
same,activation,[7],inactive: 3.07%
same,"activity change, negative = inhibition",[8],inconclusive: 15%
same,Potency,[4],inactive
same,Potency,[9],inactive
CCOP(=O)(OCC)SCCSCC,Potency,[2],inactive
same,Potency,[10],active: 44.7 µM
same,Potency,[5],"inconclusive: 61.1 µM [activator, partial curve]"
same,Potency,[11],"inconclusive: 13.7 µM [activator, partial curve, poor fit]"
Cc1cc(C)nc(NC(=O)NS(=O)(=O)c2ccccc2C(=O)OC2COC2)n1,Potency,[2],"inconclusive: 7.94 µM [fluorescent, side channel, partial curve]"
same,"activity change, negative = inhibition",[8],inconclusive: -8.05%
same,max response,[12],inconclusive: -3.11%
same,Potency,[11],inactive
ClCC(Br)CBr (stereo unspecified),Potency,[13],inactive
same,Potency,[14],inactive
same,Potency,[15],inactive
same,Potency,[2],inactive
same,Potency,[3],inactive
same,Potency,[4],"inconclusive: 50.1 µM [side channel, rising, single point]"
same,activity change % (negative = inhibition),[16],inactive: 6.39%
same,Potency,[5],"inconclusive: 66.8 µM [activator, single point]"
same,activation,[6],inconclusive: -2.24%
COc1cnc(OC)n2nc(NS(=O)(=O)c3c(OCC(F)F)cccc3C(F)(F)F)nc12,Potency,[2],inactive
same,Potency,[7],"inconclusive: 22.4 µM [side channel, falling, single point]"
same,"activity change, negative = inhibition",[17],inconclusive: 34.5%
same,activation,[10],inconclusive: 34.1%
same,activation,[18],inactive: 0.672%
same,Potency,[5],"inconclusive: 43.3 µM [activator, partial curve, poor fit]"
COC(=O)c1ccccc1S(=O)(=O)NC(=O)N(C)c1nc(C)nc(OC)n1,Potency,[2],inactive
same,Potency,[7],"inconclusive: 0.0035 µM [side channel, rising, full curve, poor fit]"

# Given tab-delimited: part of the list above.
compound	measurement	setting	value
Oc1c(Cl)cccc1Cl	Potency	[5]	inconclusive: 33.5 µM [fluorescent, side channel, partial curve, poor fit]
same	Potency	[6]	inactive
CCNC(=O)NC(=O)/C(C#N)=N/OC	Potency	[2]	inactive
same	activation	[7]	inactive: 3.07%
same	activity change, negative = inhibition	[8]	inconclusive: 15%
same	Potency	[4]	inactive
same	Potency	[9]	inactive
CCOP(=O)(OCC)SCCSCC	Potency	[2]	inactive
same	Potency	[10]	active: 44.7 µM
same	Potency	[5]	inconclusive: 61.1 µM [activator, partial curve]
